Results as given in publication PMC3424243.

Sequences of proteins named here, by UniProt entry; tags and fusion partners are left off. A change or cut given only in a name is not applied to a line headed by its entry.
UniProt Q95XC8: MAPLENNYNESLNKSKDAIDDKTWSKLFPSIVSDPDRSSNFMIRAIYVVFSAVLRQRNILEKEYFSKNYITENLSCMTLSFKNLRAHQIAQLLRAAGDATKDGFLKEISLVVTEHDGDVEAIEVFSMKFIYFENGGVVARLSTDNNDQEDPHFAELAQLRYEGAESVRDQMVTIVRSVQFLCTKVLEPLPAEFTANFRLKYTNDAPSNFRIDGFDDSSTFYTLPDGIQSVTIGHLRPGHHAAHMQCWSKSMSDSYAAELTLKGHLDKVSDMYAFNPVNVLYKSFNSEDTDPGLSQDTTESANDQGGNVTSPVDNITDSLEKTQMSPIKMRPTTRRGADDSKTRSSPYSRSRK

T1: GFP::LAB-1::HA expressed in a transgenic C. elegans line (C. elegans) (UniProt Q17604)
T1 sequence: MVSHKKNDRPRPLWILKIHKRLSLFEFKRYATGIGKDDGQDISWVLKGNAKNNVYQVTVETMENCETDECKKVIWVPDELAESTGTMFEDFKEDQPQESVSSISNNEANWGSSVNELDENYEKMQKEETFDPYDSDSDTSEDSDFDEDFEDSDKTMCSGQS

B1: HIM-3, axial element protein (protein, UniProt G5EBG0 1-291)
chain: MATKEQIVEHRESEIPIASQWKATFPVDLEIEKNSEMFALRYIKCASAFILDRRGILDEKCFKTRTIDKLLVTAFQSSVPAAKRVSSTFDGLRDAIQQGYLREFAIVFYKKPNEEDINEVFAFRFAYGDEGEIFVSLNNGIDTNESSQELLQAKFVDTDNTKQMFASTIKKLHRCIKKMEPLPQGSDASFRVSYTEKAPKDYTPEGYLLSPMFYTLNQDIRKASIGIVCGGHHKIQMLAASQYLKQDFDLDKTTTLNPNMSIMANQSKRKGRISRDSPYGLSQGITKKNKD
B2: HTP-1, axial element protein (protein, UniProt Q20305 1-352)
chain: MAPLETIYDESLNKSADSIDDKKWSKLFPRIVSDPDRSSNFMTRAIYVAFSAVLRNRNILGQEYFTKNYITEKLKCMTLCFRNPRSNQIAQLLRNAGDATKDGFLKEVSLVITNNEGDLEAIEVFSMKFIYFENGGVVARLSTDKNGQEDPHFAKLAQLVYEGGDSVRDQMVTIVRSVQFLCTKVLEPLPEEFTANFRLEYTNDAPSNFRIDGFEDSSTFYTLPDDIQSATIGHLRPGCHAANMECWSMLMSDSYEAELTLKRHLDKVSDRHGFNPVNVLYKSFNSEDSDTSLSQATTESVNDQGGNETSPVDDITESLEKAQMSPIQTRPTTRRGADGSKTRSSPYSRSCK
B3: HTP-3, axial element protein (protein, UniProt O01820 1-739)
chain: MDESFDSSVVPGSLTSDDRAIFNEQTLKNGDENSKSSLEVMANCVYLANSTILRERKVIPAEYFQDFQVYGDVSGYTLRQDIPEGRSVSSKLLASHDAIRQKLLQKLAIVVEESLNTNPVETFVWTFVYDSTTSASAEIGYGGRKSKFVVNYLNMDDTAQQFCKMFSELRNVLSLLRPLPRGLIPSMKVAYRGEPEFVPGFQQVDDFVNPEQINLGAVSFPHGNGFQFAYASKFMVEQPSAIRPPVEVSHFEDDLLNSTITPIEVVRDNTMNCAENPELDEIYFSPGRQEVRMDEDVANESIRCNPSMASEMMVLQSEYNVLIADNDEVPMVVERERSPIVKAAKKRSTRAPAVPITPTEPASPVESPVKEQPQKAPKAQMRRSSKRTTKNNERCEQKEEEPIVNPKRRSARRLVPPVEVDEQPEEQNDDDAQNSLQIDSDAQNSLQIDSDAIITSPEKRNESKSAIPEEAADLDNTTSEKQESSTARYGVSNTSINRKKPDPVANPVSEEAQVDLANGSIPDKRPRKRKYGRVSSILDVADLPTDDTVEEDVRESPIYGRVPSILDVARAEENDAQNDAQDAQNEIAVEGLADLSIDTEQHEEAAPINVTGHQSESVPIIVTEHQSEEAQTVVTEQPAGAASVIAAERHYGRVSSILDVAGSFADVDPSGAAPAIATERHYGRVSSILDVAGSLSDVDPQEDTESSTQNQSTSKKFKPNPPKAMRYGQSPNMPSRRGN

Each molecule was assayed against T1, GFP::LAB-1::HA expressed in a transgenic C. elegans line (C. elegans) (assay: affinity purification with mass spectrometry; immunoprecipitation with GFP antibodies from whole worm lysates of the line expressing GFP-LAB-1, mass spectrometry; stringent conditions).

binding, binds:
HTP-2, axial element protein (from UniProt Q95XC8)
B1
B2
B3

Results are given in words; binding and its absence hold for the method and conditions named. Binding seen in cells or lysates may run through a third protein. These calls come from enrichment with a bait or labelling near it, and not all partners need be listed. Where a sequence is shown, tags or fusion partners need not be part of it.
